Experimental data taken from the supplement of paper PMC10689618.
Structures can show the parent of a compound that is named as a salt. Some of the results follow. Repeats are few or missing, and single values can be far off.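 Labelled rat cortical synaptosomes were engulfed by primary human fetal astrocytes. Engulfment equaled a red/green ratio, corrected for calcein live-cell signal and normalized to the plate median. Compounds were toxic when calcein dropped over 30%, and reduced phagocytosis when below 70% of the median above 5 µM.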

system: Human fetal astrocytes; test: synaptosome phagocytosis (pHrodo/calcein intensity ratio) relative to plate median of data wells; higher = more phagocytosis; conditions: 5.56 µM; 24 h

Compound | synaptosome phagocytosis [%]
CC(C)C[C@@H]1NC(=O)[C@H](CCCN)NC(=O)[C@H](C(C)C)NC(=O)[C@H](Cc2ccc(O)cc2)N[C@@H](CCC(=O)O)C(=O)N[C@@H](CC(N)=O)C(=O)[C@@H](Cc2ccccc2)NC(=O)[C@H](Cc2ccccc2)NC(=O)[C@@H]2CCCN2C(=O)[C@@H](Cc2ccccc2)NC1=O | 27.7
C[N+](C)(C)CC(O)CC(=O)[O-] (stereo not given) | 96.4
CC(=O)OCC(=O)[C@@]1(O)CC[C@H]2[C@@H]3CCC4=CC(=O)CC[C@]4(C)[C@H]3[C@@H](O)C[C@@]21C | 120
CCCN(CCC)S(=O)(=O)c1ccc(C(=O)O)cc1 | 134
CC(N)C12CC3CC(CC(C3)C1)C2 (stereo not given) | 71.4
CON | 103
Cn1c2ncnc-2c(O)n(C)c1=O | 74.6
CC(COc1ccccc1)NC(C)C(O)c1ccc(O)cc1 (stereo not given) | 111
CN(C)CCCO[C@@H]1[C@H]2OC(C)(C)O[C@H]2O[C@@H]1[C@H](O)CO | 124
CS(=O)(=O)c1ccc([C@@H](O)[C@@H](CO)NC(=O)C(Cl)Cl)cc1 | 95.7
C/C=N/N(C)C=O | 124
C1CNCCN1 | 101
NNC(=O)c1ccncc1.Nc1ccc(C(=O)O)c(O)c1 | 126
CC(C)NCC(O)c1cc(O)cc(O)c1 (stereo not given) | 88.9
O=C(/C=C/c1ccccc1)c1ccc(O[C@@H]2O[C@H](CO)[C@@H](O)[C@H](O)[C@H]2O)cc1O | 89.3
CCN(CC)CCCC(C)Nc1c2ccc(Cl)cc2nc2ccc(OC)cc12 (stereo not given) [Quinacrine dihydrochloride] | 64
CCN1CCCC1CNC(=O)c1cc(S(N)(=O)=O)ccc1OC (stereo not given) | 114
O=C(OOC(=O)c1ccccc1)c1ccccc1 | 108
Cn1c(=O)c2nc(C3CCCC3)[nH]c2n(C)c1=O | 96.8
CCN1CCCC(OC(=O)C(c2ccccc2)c2ccccc2)C1 (stereo not given) | 82.1

Compound | synaptosome phagocytosis [%]
COC(=O)C[C@H]1C(C)(C)[C@@H](O)[C@@H]2CC3=C4C=C(OC)O[C@@H](c5ccoc5)[C@]4(C)CCC3[C@@]1(C)C2=O (stereo partly drawn) [3-DEOXO-3beta-HYDROXYMEXICANOLIDE 16-ENOL ETHER] | 121
CC1(C)CC[C@]2(C(=O)O)CC[C@]3(C)C(=CC[C@@H]4[C@@]5(C)CC[C@H](O)C(C)(C)[C@@H]5CC[C@]43C)[C@@H]2C1 | 136
Cc1onc(-c2ccccc2Cl)c1C(=O)N[C@@H]1C(=O)N2[C@@H]1SC(C)(C)[C@@H]2C(=O)O | 126
O=C(O[C@H]1CN2CCC1CC2)N1CCc2ccccc2[C@@H]1c1ccccc1 | 95.7
CC[C@H]1C(=O)OC[C@@H]1Cc1cncn1C | 113
CC1=C2C(=CO[C@H](C)[C@H]2C)C(=O)C(C(=O)O)=C1O | 100
COc1cc(OC)c2c(=O)c(OC)c(-c3ccc(OC)c(OC)c3)oc2c1 | 81.2
CCCCCCCCCc1ccc(OCCOCCOCCOCCOCCOCCOCCOCCOCCO)cc1 | 98.8
CC(=O)OC(C)(C)[C@@H]1Cc2cc3ccc(=O)oc3cc2O1 | 102
C[C@@H]1CC[C@H]2C(C)(C)[C@H]3C[C@@]12CC[C@@]3(C)O | 140
CCN(CC)CCOCCOC(=O)C(CC)(CC)c1ccccc1 | 86
CN(C)c1ccc2nc3ccc(=[N+](C)C)cc-3sc2c1 | 103
O=C1C(=O)c2ccccc2C(O)=C1C1CCC(c2ccc(Cl)cc2)CC1 (stereo not given) | 133
NC(Cc1ccc(F)cc1)C(=O)O (stereo not given) | 136
O=c1oc2c(O)c(O)cc3c(=O)oc4c(O)c(O)cc1c4c23 | 96.3
CCOC(=O)CCC(=O)O[C@H]1[C@H](O[C@@H]2[C@@H](C)[C@H](O[C@H]3C[C@@](C)(OC)[C@@H](O)[C@H](C)O3)[C@@H](C)C(=O)O[C@H](CC)[C@@](C)(O)[C@H](O)[C@@H](C)C(=O)[C@H](C)C[C@@]2(C)O)O[C@H](C)C[C@@H]1N(C)C | 109
C=CC(N)CCC(=O)O (racemic) [(±)-gamma-Vinyl GABA] | 131
Nc1nc(=O)c2[nH]c(=O)cnc2[nH]1 | 89.4
O=C(O)CCNC(=O)c1ccccc1 | 86.1
C=C1c2c(Cl)ccc(O)c2C(O)=C2C(=O)[C@]3(O)C(O)=C(C(N)=O)C(=O)[C@@H](N(C)C)[C@@H]3[C@@H](O)[C@H]12.O=C(O)c1cc(S(=O)(=O)O)ccc1O | 104

3 records picked at random from those above, as already listed:
Compound | synaptosome phagocytosis [%]
CCN(CC)CCOCCOC(=O)C(CC)(CC)c1ccccc1 | 86
CC[C@H]1C(=O)OC[C@@H]1Cc1cncn1C | 113
CC1=C2C(=CO[C@H](C)[C@H]2C)C(=O)C(C(=O)O)=C1O | 100
